Experimental data as given in US20260199427A1 (priority 2021, published 2026).
For some assays here: For at least one compound, name, drawing or mass did not settle the structure. Some entries share one result that the patent states for a list of compounds.

Key:
Set-up in all cases: species or system New Zealand White (NZW) rabbits
Settings in all cases: rabbit, in vivo
[1] = test system: B. anthracis Ames NR-3838 spores
[2] = test system: B. anthracis Ames spores (NR3838)
[3] = test system: B. anthracis Ames NR-3838 spores; remark: listed apart in the source
[4] = test system: B. anthracis Ames spores (NR3838); remark: listed apart in the source
[5] = test system: B. anthracis Ames spores (NR3838); remark: listed apart in the source
[6] = test system: B. anthracis Ames spores (NR3838); remark: listed apart in the source

| SMILES | animals positive for bacteremia [1] | febrile response (body temperature) [2] | anthrax induced lesions (histopathology) [3] | anthrax-related lesions (histopathology) [4] | B. anthracis concentration in lung tissue of surviving animals [5] | bacteremia [6] |
| --- | --- | --- | --- | --- | --- | --- |
| C[C@H]1COc2c(N3CCN(C)CC3)c(F)cc3c(=O)c(C(=O)O)cn1c23 [Levofloxacin] | 8 out of 12 | above 40.5 °C | mitigation of anthrax induced lesions | generally mitigated | 103 to 10^4 cfu/g | never developed bacteremia at a detectable level |
| CCCCCCCCCCNCCNC1(C)CC(OC2C(Oc3c4cc5cc3Oc3ccc(cc3Cl)[C@@H](O)[C@@H](NC(=O)[C@@H](CC(C)C)NC)C(=O)N[C@@H](CC(N)=O)C(=O)N[C@H]5C(=O)N[C@H]3C(=O)N[C@H](C(=O)N[C@H](C(=O)O)c5cc(O)c(CNCP(=O)(O)O)c(O)c5-c5cc3ccc5O)[C@H](O)c3ccc(c(Cl)c3)O4)OC(CO)C(O)C2O)OC(C)C1O (some centres unmarked) [Vibativ, N^3″-[2-(decylamino)ethyl]-29-[[(phosphonomethyl)amino]methyl]vancomycin] | – | above 40.5 °C | – | – | 103 to 10^4 cfu/g | – |
